# PubChem BioAssay AID1259308 | NCATS, 2017
# Purpose: 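Knock-downs that increase output of a recombinant reporter protein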 (primary screen)
# Cell system: human HEK293 embryonic kidney cells stably expressing firefly luciferase (HEK-CMV-Luc2-Hygro)
# Knock-down reagent: single siRNA against human genes, 0.8 pmol siRNA per well
# Duration: 72 h
# Detection: 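Reporter luminescence and viable-cell signal on separate replicate plates, given as percent of non-targeting control and median/MAD z-scores, plus per-cell luciferase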
# Scale: total luciferase, z-score: higher = more reporter protein produced
# Call rule: 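Active when the median/MAD z-score for overall luciferase is greater than 3; a gene was taken forward for validation with new siRNAs if at least two of its three siRNAs passed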
# Calls: active = raised luciferase; inactive = no rise
# This is a random part of about 59,000 deposited reagents. Of all reagents, about 1,510 (2.6%) were called active. 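Calls use total luciferase alone and ignore viability, so some active siRNAs may act by altering cell number.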 Entries without a mark were called inactive. Reagents against one gene are numbered here. Not all columns of the deposit are shown. Reagent sequences are not shown.
target gene,reagent,"total luciferase, z-score"
TBCK (TBC1 domain containing kinase),1,-0.759
TBCK (TBC1 domain containing kinase),2,-0.116
TBCK (TBC1 domain containing kinase),3,0.215
SS18L2 (SS18 like 2),1,1.44
SS18L2 (SS18 like 2),2,0.526
SS18L2 (SS18 like 2),3,1.5
MYLIP (myosin regulatory light chain interacting protein),1,-0.974
MYLIP (myosin regulatory light chain interacting protein),2,-0.55
MYLIP (myosin regulatory light chain interacting protein),3,0.00493
PWWP3B (PWWP domain containing 3B),1,0.00157
PWWP3B (PWWP domain containing 3B),2,-0.792
PWWP3B (PWWP domain containing 3B),3,0.718
SHOX2 (SHOX homeobox 2),1,0.46
SHOX2 (SHOX homeobox 2),2,-0.472
SHOX2 (SHOX homeobox 2),3,1.35
OXGR1 (oxoglutarate receptor 1),1,-1.11
OXGR1 (oxoglutarate receptor 1),2,-0.0502
OXGR1 (oxoglutarate receptor 1),3,-0.32
TSEN15 (tRNA splicing endonuclease subunit 15),1,0.191
TSEN15 (tRNA splicing endonuclease subunit 15),2,-0.588
TSEN15 (tRNA splicing endonuclease subunit 15),3,0.171
PROKR2 (prokineticin receptor 2),1,-0.183
PROKR2 (prokineticin receptor 2),2,3.73 (active)
PROKR2 (prokineticin receptor 2),3,0.0896
KCNK13 (potassium two pore domain channel subfamily K member 13),1,2.21
KCNK13 (potassium two pore domain channel subfamily K member 13),2,-0.169
KCNK13 (potassium two pore domain channel subfamily K member 13),3,0.556
ZNF616 (zinc finger protein 616),1,-0.566
ZNF616 (zinc finger protein 616),2,1.46
ZNF616 (zinc finger protein 616),3,-0.301
AFAP1L1 (actin filament associated protein 1 like 1),1,-1.79
AFAP1L1 (actin filament associated protein 1 like 1),2,0.000691
AFAP1L1 (actin filament associated protein 1 like 1),3,2.65
MYOZ1 (myozenin 1),1,0.094
MYOZ1 (myozenin 1),2,-0.00901
MYOZ1 (myozenin 1),3,-1
SNW1 (SNW domain containing 1),1,-1.03
SNW1 (SNW domain containing 1),2,-0.263
SNW1 (SNW domain containing 1),3,0.776
CORO1A (coronin 1A),1,0.341
CORO1A (coronin 1A),2,0.829
CORO1A (coronin 1A),3,2.36
KRTAP11-1 (keratin associated protein 11-1),1,-1.14
KRTAP11-1 (keratin associated protein 11-1),2,-0.251
KRTAP11-1 (keratin associated protein 11-1),3,-1
MROH2B (maestro heat like repeat family member 2B),1,-0.919
MROH2B (maestro heat like repeat family member 2B),2,2.51
MROH2B (maestro heat like repeat family member 2B),3,-1.46
EIF3B (eukaryotic translation initiation factor 3 subunit B),1,-2.55
EIF3B (eukaryotic translation initiation factor 3 subunit B),2,-2.23
EIF3B (eukaryotic translation initiation factor 3 subunit B),3,-2.29
ZFP41 (ZFP41 zinc finger protein),1,5.63 (active)
ZFP41 (ZFP41 zinc finger protein),2,-0.492
ZFP41 (ZFP41 zinc finger protein),3,0.731
ZFPL1 (zinc finger protein like 1),1,-1.09
ZFPL1 (zinc finger protein like 1),2,-0.815
ZFPL1 (zinc finger protein like 1),3,0.579

Single entries from the list.
For “total luciferase, z-score”, SHOX2 (SHOX homeobox 2) #2 is entered as -0.472
For “total luciferase, z-score”, SS18L2 (SS18 like 2) #3 reads 1.5
Under “total luciferase, z-score”, KCNK13 (potassium two pore domain channel subfamily K member 13) #1 shows 2.21
Under “total luciferase, z-score”, MROH2B (maestro heat like repeat family member 2B) #2 is entered as 2.51
SHOX2 (SHOX homeobox 2) #3, total luciferase, z-score → 1.35
Under “total luciferase, z-score”, OXGR1 (oxoglutarate receptor 1) #1 is entered as -1.11
